Data on 7 molecules can be found in US20230303682A1.

Protein sequences, listed by entry. Tags and fused reporters are not part of them. Lines headed by an entry give the natural chain unless they say otherwise; changes in a name come on top.
UniProt Q04721: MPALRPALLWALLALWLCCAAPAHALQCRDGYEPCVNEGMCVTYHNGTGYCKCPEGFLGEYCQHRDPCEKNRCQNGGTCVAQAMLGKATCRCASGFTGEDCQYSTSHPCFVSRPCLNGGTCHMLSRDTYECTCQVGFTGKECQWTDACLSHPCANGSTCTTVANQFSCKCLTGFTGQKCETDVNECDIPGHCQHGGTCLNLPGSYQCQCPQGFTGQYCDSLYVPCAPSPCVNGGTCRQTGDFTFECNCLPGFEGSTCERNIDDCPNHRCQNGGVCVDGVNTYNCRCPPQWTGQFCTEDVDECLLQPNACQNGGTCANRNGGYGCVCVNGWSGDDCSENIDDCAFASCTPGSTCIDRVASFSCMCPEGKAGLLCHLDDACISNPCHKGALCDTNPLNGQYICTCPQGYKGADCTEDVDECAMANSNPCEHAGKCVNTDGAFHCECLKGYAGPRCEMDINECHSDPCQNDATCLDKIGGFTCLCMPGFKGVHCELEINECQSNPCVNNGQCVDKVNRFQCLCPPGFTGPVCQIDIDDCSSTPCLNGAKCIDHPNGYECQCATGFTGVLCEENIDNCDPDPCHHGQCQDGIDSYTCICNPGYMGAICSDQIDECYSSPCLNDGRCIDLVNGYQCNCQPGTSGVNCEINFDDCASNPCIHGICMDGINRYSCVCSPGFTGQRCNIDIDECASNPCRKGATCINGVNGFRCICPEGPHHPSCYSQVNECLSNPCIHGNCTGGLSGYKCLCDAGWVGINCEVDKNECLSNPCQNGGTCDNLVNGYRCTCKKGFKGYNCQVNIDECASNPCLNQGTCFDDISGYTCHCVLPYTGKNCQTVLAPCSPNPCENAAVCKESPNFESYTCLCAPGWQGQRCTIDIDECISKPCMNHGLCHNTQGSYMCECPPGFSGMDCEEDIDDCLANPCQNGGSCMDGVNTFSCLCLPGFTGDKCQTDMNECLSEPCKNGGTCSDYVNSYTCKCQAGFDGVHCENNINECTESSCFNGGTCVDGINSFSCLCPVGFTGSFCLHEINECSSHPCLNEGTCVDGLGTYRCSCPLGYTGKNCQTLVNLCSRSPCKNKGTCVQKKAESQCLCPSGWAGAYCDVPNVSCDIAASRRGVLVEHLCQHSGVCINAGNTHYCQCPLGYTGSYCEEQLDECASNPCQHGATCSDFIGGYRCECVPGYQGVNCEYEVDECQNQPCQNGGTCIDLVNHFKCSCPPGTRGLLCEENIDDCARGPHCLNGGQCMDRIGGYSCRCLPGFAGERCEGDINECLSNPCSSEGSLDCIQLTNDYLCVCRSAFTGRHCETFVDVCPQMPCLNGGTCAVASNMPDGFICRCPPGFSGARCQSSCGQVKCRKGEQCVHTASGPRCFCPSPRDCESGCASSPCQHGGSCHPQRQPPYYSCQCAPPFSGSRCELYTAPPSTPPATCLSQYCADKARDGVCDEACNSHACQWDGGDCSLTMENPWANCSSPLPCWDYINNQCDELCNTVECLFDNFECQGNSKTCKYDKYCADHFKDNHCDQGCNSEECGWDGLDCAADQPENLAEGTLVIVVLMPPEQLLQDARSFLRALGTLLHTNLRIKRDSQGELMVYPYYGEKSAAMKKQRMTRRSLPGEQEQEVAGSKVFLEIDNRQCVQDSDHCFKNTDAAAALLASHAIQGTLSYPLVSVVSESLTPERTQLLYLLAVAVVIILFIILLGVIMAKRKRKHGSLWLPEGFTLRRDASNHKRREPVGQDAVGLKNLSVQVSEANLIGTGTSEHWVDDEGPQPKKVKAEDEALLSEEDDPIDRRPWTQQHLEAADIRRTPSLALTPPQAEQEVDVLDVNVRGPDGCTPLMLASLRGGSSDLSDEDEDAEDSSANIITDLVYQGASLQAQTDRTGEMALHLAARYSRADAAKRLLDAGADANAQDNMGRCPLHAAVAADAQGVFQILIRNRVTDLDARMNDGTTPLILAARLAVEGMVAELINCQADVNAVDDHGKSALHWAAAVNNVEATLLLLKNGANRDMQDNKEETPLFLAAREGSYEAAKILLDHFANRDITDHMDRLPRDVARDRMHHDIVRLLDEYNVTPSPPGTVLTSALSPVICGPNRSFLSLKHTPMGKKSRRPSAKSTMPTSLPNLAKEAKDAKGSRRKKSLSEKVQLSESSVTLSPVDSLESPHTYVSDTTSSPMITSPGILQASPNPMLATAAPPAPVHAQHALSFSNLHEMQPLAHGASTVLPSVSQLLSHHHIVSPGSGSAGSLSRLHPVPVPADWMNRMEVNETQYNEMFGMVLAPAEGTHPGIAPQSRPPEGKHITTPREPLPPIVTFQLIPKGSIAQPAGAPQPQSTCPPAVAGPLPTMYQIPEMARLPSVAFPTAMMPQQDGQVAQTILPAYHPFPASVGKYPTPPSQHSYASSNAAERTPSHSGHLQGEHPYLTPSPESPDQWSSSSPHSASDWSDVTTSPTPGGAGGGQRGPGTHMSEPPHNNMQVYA

Sequences and labels used below:
B1: hu1B2.v4L7 (antibody, V domains shown)
VH: EVQLVESGGGLVQPGGSLKLSCAVSGFTFSDFYMEWIRQASGKGLEWIAAQRNKANDFSIVYSASVKDRFTISRDTSKSTLYLQMNSLKTEDTAVYYCSRDGGRLALDAWGQGTLVTVSS
VL: DIQMTQSPSSVSASVGDRVTITCQTSEDIYSGLAWYQQKPGKSPKLLIYGASRLQDGVPSRFSGSGSGTDYTLTISSLQPEDFATYYCQQGFKYPLTFGGGTKVEIK
B2: hu1B2.v9L7 (antibody, V domains shown)
VH: EVQLVESGGGLVQPGGSLKLSCAVSGFTFSDFYMEWIRQASGKGLEWIAAQRNKANDFSIVYSASVKDRFTISRDTSKSTLYLQMNSLKTEDTAVYYCSRDGGKWGLDAWGQGTLVTVSS
VL: DIQMTQSPSSVSASVGDRVTITCQTSEDIYSGLAWYQQKPGKSPKLLIYGASRLQDGVPSRFSGSGSGTDYTLTISSLQPEDFATYYCQQGFKYPLTFGGGTKVEIK
B3: hu1B2.v8L7 (antibody, V domains shown)
VH: EVQLVESGGGLVQPGGSLKLSCAVSGFTFSDFYMEWIRQASGKGLEWIAAQRNKANDFSIVYSASVKDRFTISRDTSKSTLYLQMNSLKTEDTAVYYCSRDGGKLALDAWGQGTLVTVSS
VL: DIQMTQSPSSVSASVGDRVTITCQTSEDIYSGLAWYQQKPGKSPKLLIYGASRLQDGVPSRFSGSGSGTDYTLTISSLQPEDFATYYCQQGFKYPLTFGGGTKVEIK
B4: hu1B2.v4 (antibody, human IgG1, V domains shown)
VH: EVQLVESGGGLVQPGGSLKLSCAVSGFTFSDFYMEWIRQASGKGLEWIAAQRNKANDFSIVYSASVKDRFTISRDTSKSTLYLQMNSLKTEDTAVYYCSRDGGRLALDAWGQGTLVTVSS
VL: DIQMTQSPSSVSASVGDRVTITCQTSEDIYSGLAWYQQKPGKSPKLLIYGASRLQDGVPSRFSGSGSGTDYTLTISSLQPEDFATYFCQQGFKYPLTFGGGTKVEIK
B5: hu1B2.v8 (antibody, human IgG1, V domains shown)
VH: EVQLVESGGGLVQPGGSLKLSCAVSGFTFSDFYMEWIRQASGKGLEWIAAQRNKANDFSIVYSASVKDRFTISRDTSKSTLYLQMNSLKTEDTAVYYCSRDGGKLALDAWGQGTLVTVSS
VL: DIQMTQSPSSVSASVGDRVTITCQTSEDIYSGLAWYQQKPGKSPKLLIYGASRLQDGVPSRFSGSGSGTDYTLTISSLQPEDFATYFCQQGFKYPLTFGGGTKVEIK
B6: hu1B2.v9 (antibody, human IgG1, V domains shown)
VH: EVQLVESGGGLVQPGGSLKLSCAVSGFTFSDFYMEWIRQASGKGLEWIAAQRNKANDFSIVYSASVKDRFTISRDTSKSTLYLQMNSLKTEDTAVYYCSRDGGKWGLDAWGQGTLVTVSS
VL: DIQMTQSPSSVSASVGDRVTITCQTSEDIYSGLAWYQQKPGKSPKLLIYGASRLQDGVPSRFSGSGSGTDYTLTISSLQPEDFATYFCQQGFKYPLTFGGGTKVEIK
B7: hu1B2.v2 (antibody, human IgG1, V domains shown)
VH: EVQLVESGGGLVQPGGSLKLSCAVSGFTFSDFYMEWIRQASGKGLEWIAAQRNKANDFSIVYSASVKDRFTISRDTSKSTLYLQMNSLKTEDTAVYYCSRDGGRWGLDAWGQGTLVTVSS
VL: DIQMTQSPSSVSASVGDRVTITCQTSEDIYSGLAWYQQKPGKSPKLLIYGASRLQDGVPSRFSGSGSGTDYTLTISSLQPEDFATYFCQQGFKYPLTFGGGTKVEIK

No constants are given. Whether binding was seen depends on the method and setting. Some binding calls cover weakened binding; strength is not graded here.

The first test addresses huNotch2-EGF6-10 (human) (UniProt Q04721). As to the kind of experiment: SPR BIAcore.
Take B1: the binding entry is on record as “binds”.
On the same count and under the same terms, to B2 belongs “binds”.
On the same count and under the same terms, to B3 belongs “binds”.

Another test shares this target. The experiment in a line: BIAcore binding kinetic analysis of IgG1 variants.
On to B4, for which the binding entry is reported as “binds”.
Still for that read-out and setting: to B5 belongs “binds”; to B6, “binds”; to B7, “binds”.
